Results reported in paper PMC10276051.
These are yes or no findings as the source states them, for the method shown. Binding seen in cells or lysates may run through a third protein. Some results given as binding are weak or reduced against the parent protein; the word gives no strength. Values belong to the molecule of their own block, whether it stands above or below them.

The chains behind the UniProt entries cited, without tags or fusion partners.
UniProt P67809: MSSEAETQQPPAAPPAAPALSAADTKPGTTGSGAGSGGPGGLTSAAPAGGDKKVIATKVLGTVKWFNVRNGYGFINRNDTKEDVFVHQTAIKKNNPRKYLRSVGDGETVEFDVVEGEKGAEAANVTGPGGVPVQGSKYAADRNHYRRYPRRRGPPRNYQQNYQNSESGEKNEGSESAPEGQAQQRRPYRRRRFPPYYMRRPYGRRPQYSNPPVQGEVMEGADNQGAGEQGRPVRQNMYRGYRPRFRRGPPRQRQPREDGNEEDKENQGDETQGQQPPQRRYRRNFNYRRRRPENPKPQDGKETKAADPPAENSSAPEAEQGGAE

What was measured:
[1] = target: T1, T-LAK-originated protein kinase (TOPK), endogenous in EC cells (human (endogenous in KYSE150 and KYSE30)) (UniProt Q96KB5); experiment: co-IP; endogenous proteins in KYSE150 and KYSE30 lysates (50 mM Tris-HCl pH 7.4, 1 mM EDTA, 1% NP40, 150 mM NaCl); IP with anti-TOPK or anti-YB1 antibody (IgG as control) on protein A/G agarose at 4 °C overnight, Western blot; also done in sgTOPK (TOPK knockout) cells, where the level of YB1 bound with TOPK decreased
T1 sequence: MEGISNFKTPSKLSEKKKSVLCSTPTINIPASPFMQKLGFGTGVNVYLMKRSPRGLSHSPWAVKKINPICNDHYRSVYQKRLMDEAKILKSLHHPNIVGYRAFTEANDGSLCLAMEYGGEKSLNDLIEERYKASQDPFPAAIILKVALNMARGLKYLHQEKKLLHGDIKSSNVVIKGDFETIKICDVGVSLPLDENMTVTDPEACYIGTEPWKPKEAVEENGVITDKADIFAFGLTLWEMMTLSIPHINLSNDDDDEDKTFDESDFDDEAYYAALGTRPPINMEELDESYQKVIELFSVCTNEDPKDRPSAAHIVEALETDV

[2] = target: Y-box binding protein 1 (YB1), full length, in pBiFC-VN173 (UniProt P67809); experiment: split reporter; BiFC in HEK293T cells; TOPK in pBiFC-VC155 and YB1 in pBiFC-VN173 transfected, 48 h, fixed with 4% PFA, imaged by IN Cell Analyzer 6000
[3] = target: Y-box binding protein 1 (YB1), endogenous in EC cells (human (endogenous in KYSE150 and KYSE30)) (UniProt P67809); experiment: co-IP; endogenous proteins in KYSE150 and KYSE30 lysates (50 mM Tris-HCl pH 7.4, 1 mM EDTA, 1% NP40, 150 mM NaCl); IP with anti-TOPK or anti-YB1 antibody (IgG as control) on protein A/G agarose at 4 °C overnight, Western blot; also done in sgTOPK (TOPK knockout) cells, where the level of YB1 bound with TOPK decreased

- binding [1]: binds
Molecule: Y-box binding protein 1 (YB1), endogenous in EC cells (from UniProt P67809 1-324)

- binding [2]: binds
B1: T-LAK-originated protein kinase (TOPK), full length, in pBiFC-VC155 (enzyme, UniProt Q96KB5 1-322)
chain: MEGISNFKTPSKLSEKKKSVLCSTPTINIPASPFMQKLGFGTGVNVYLMKRSPRGLSHSPWAVKKINPICNDHYRSVYQKRLMDEAKILKSLHHPNIVGYRAFTEANDGSLCLAMEYGGEKSLNDLIEERYKASQDPFPAAIILKVALNMARGLKYLHQEKKLLHGDIKSSNVVIKGDFETIKICDVGVSLPLDENMTVTDPEACYIGTEPWKPKEAVEENGVITDKADIFAFGLTLWEMMTLSIPHINLSNDDDDEDKTFDESDFDDEAYYAALGTRPPINMEELDESYQKVIELFSVCTNEDPKDRPSAAHIVEALETDV

- binding [3]: binds
B2: T-LAK-originated protein kinase (TOPK), endogenous in EC cells (enzyme, UniProt Q96KB5 1-322)
chain: MEGISNFKTPSKLSEKKKSVLCSTPTINIPASPFMQKLGFGTGVNVYLMKRSPRGLSHSPWAVKKINPICNDHYRSVYQKRLMDEAKILKSLHHPNIVGYRAFTEANDGSLCLAMEYGGEKSLNDLIEERYKASQDPFPAAIILKVALNMARGLKYLHQEKKLLHGDIKSSNVVIKGDFETIKICDVGVSLPLDENMTVTDPEACYIGTEPWKPKEAVEENGVITDKADIFAFGLTLWEMMTLSIPHINLSNDDDDEDKTFDESDFDDEAYYAALGTRPPINMEELDESYQKVIELFSVCTNEDPKDRPSAAHIVEALETDV
